# Experimental data as given in the supplement of paper PMC8728848.
# The other results are listed elsewhere or left out.
# B1: SfaEH (Escherichia coli), Q1RDG5 (protein)
# chain: LLCRNNQTGQVFNSGDTSFRVNVSPVVQYDKSISVLDLSQLVSCQNEDSTGQNYDYLKILKGSGFSPALDTKTYGRLDFTSRPTGYARQLPLQFDLQVTEAFYQYGVWKPFPAKLYLYPAPGVFGKVINNGDLLATLYVNKFSTKGQEAGERNFTWRFYATNDVYIQTGTCRVSSNNVKVDLPSYPGGPVTVPLTVRCDQTQSVSYTLSGPVTGSGNTVFANTAASGSGGVGIQLSDNVGPVPAGQPRSLGQVGSSPVSLGLKASYALTGQASPTPGAVQSVINVTFSYN
# Columns and labels:
# Experiment in all cases: glycan array binding signal (z-score within array); higher = stronger binding
# Conditions in all cases: glycan notation: IUPAC condensed, linker removed
# [1] = biological target: Fuc(a1-3)[Gal3S(b1-4)]GlcNAc6S
# Method in brief: (§1)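 Glycan array data were curated from 3228 arrays in the Consortium for Functional Glycomics database and kept only where the protein sequence was available. Glycan names were converted to IUPAC-condensed notation, and columns mapping to the same glycan were averaged. The binding signal is a within-array Z-score, averaged across arrays of the same protein sequence at different concentrations or buffers and across linkers. Negative Z-scores can be read as non-binding.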
# [2] = biological target: Fuc(a1-3)[GalNAc(b1-4)]GlcNAc
# Method in brief: as §1
# [3] = biological target: Fuc(a1-3)[GalNAc(b1-4)]GlcNAc6S
# Method in brief: as §1
# Fuc(a1-4)GlcNAc = biological target: Fuc(a1-4)GlcNAc
# Method in brief: as §1
# Fuc(b1-3)GlcNAc = biological target: Fuc(b1-3)GlcNAc
# Method in brief: as §1
# Gal(a1-2)Gal = biological target: Gal(a1-2)Gal
# Method in brief: as §1
# Gal(a1-3)Gal = biological target: Gal(a1-3)Gal
# Method in brief: as §1
# Gal(a1-3)Gal(b1-3)GlcNAc = biological target: Gal(a1-3)Gal(b1-3)GlcNAc
# Method in brief: as §1
# [4] = biological target: Gal(a1-3)Gal(b1-3)GlcNAc(b1-2)Man
# Method in brief: as §1
# [5] = biological target: Gal(a1-3)Gal(b1-3)GlcNAc(b1-2)Man(a1-3)[Gal(a1-3)Gal(b1-3)GlcNAc(b1-2)Man(a1-6)]Man(b1-4)GlcNAc(b1-4)GlcNAc
# Method in brief: as §1
# [6] = biological target: Gal(a1-3)Gal(b1-3)GlcNAc(b1-3)GalNAc
# Method in brief: as §1
# [7] = biological target: Gal(a1-3)Gal(b1-3)GlcNAc(b1-6)GalNAc
# Method in brief: as §1
# [8] = biological target: Gal(a1-3)Gal(b1-3)[Fuc(a1-4)]GlcNAc(b1-2)Man(a1-3)[Gal(a1-3)Gal(b1-3)[Fuc(a1-4)]GlcNAc(b1-2)Man(a1-6)]Man(b1-4)GlcNAc(b1-4)GlcNAc
# Method in brief: as §1
# Gal(a1-3)Gal(b1-4)Glc = biological target: Gal(a1-3)Gal(b1-4)Glc
# Method in brief: as §1
# Gal(a1-3)Gal(b1-4)GlcNAc = biological target: Gal(a1-3)Gal(b1-4)GlcNAc
# Method in brief: as §1
# [9] = biological target: Gal(a1-3)Gal(b1-4)GlcNAc(b1-2)Man
# Method in brief: as §1
# [10] = biological target: Gal(a1-3)Gal(b1-4)GlcNAc(b1-2)Man(a1-3)[Gal(a1-3)Gal(b1-4)GlcNAc(b1-2)Man(a1-6)]Man(b1-4)GlcNAc(b1-4)GlcNAc
# Method in brief: as §1
# [11] = biological target: Gal(a1-3)Gal(b1-4)GlcNAc(b1-3)GalNAc
# Method in brief: as §1
# [12] = biological target: Gal(a1-3)Gal(b1-4)GlcNAc(b1-6)GalNAc
# Method in brief: as §1
# [13] = biological target: Gal(a1-3)Gal(b1-4)[Fuc(a1-3)]GlcNAc
# Method in brief: as §1
# [14] = biological target: Gal(a1-3)Gal(b1-4)[Fuc(a1-3)]GlcNAc(b1-2)Man(a1-3)[Gal(a1-3)Gal(b1-4)[Fuc(a1-3)]GlcNAc(b1-2)Man(a1-6)]Man(b1-4)GlcNAc(b1-4)GlcNAc
# Method in brief: as §1
# Gal(a1-3)GalNAc = biological target: Gal(a1-3)GalNAc
# Method in brief: as §1
# [15] = biological target: Gal(a1-3)[Gal(a1-4)]Gal(b1-4)GlcNAc
# Method in brief: as §1
# [16] = biological target: Gal(a1-4)Gal(b1-3)GlcNAc(b1-2)Man(a1-3)[Gal(a1-4)Gal(b1-3)GlcNAc(b1-2)Man(a1-6)]Man(b1-4)GlcNAc(b1-4)GlcNAc
# Method in brief: as §1
# Gal(a1-4)Gal(b1-4)Glc = biological target: Gal(a1-4)Gal(b1-4)Glc
# Method in brief: as §1
# Gal(a1-4)Gal(b1-4)GlcNAc = biological target: Gal(a1-4)Gal(b1-4)GlcNAc
# Method in brief: as §1
# [17] = biological target: Gal(a1-4)Gal(b1-4)GlcNAc(b1-2)Man(a1-3)[Gal(a1-4)Gal(b1-4)GlcNAc(b1-2)Man(a1-6)]Man(b1-4)GlcNAc(b1-4)GlcNAc
# Method in brief: as §1
# [18] = biological target: Gal(a1-4)Gal(b1-4)GlcNAc(b1-3)Gal(b1-4)Glc
# Method in brief: as §1
# Gal(a1-4)GlcNAc = biological target: Gal(a1-4)GlcNAc
# Method in brief: as §1
# Gal(a1-6)Glc = biological target: Gal(a1-6)Glc
# Method in brief: as §1
# Gal(b1-2)Gal = biological target: Gal(b1-2)Gal
# Method in brief: as §1
# Gal(b1-3)Gal = biological target: Gal(b1-3)Gal
# Method in brief: as §1
# Gal(b1-3)Gal(b1-4)GlcNAc = biological target: Gal(b1-3)Gal(b1-4)GlcNAc
# Method in brief: as §1
# Gal(b1-3)GalNAc = biological target: Gal(b1-3)GalNAc
# Method in brief: as §1
# [19] = biological target: Gal(b1-3)GalNAc(a1-3)[Fuc(a1-2)]Gal(b1-4)Glc
# Method in brief: as §1
# [20] = biological target: Gal(b1-3)GalNAc(a1-3)[Fuc(a1-2)]Gal(b1-4)GlcNAc
# Method in brief: as §1
# Gal(b1-3)GalNAc(b1-3)Gal = biological target: Gal(b1-3)GalNAc(b1-3)Gal
# Method in brief: as §1
# [21] = biological target: Gal(b1-3)GalNAc(b1-3)Gal(a1-4)Gal(b1-4)Glc
# Method in brief: as §1
# [22] = biological target: Gal(b1-3)GalNAc(b1-4)Gal(b1-4)Glc
# Method in brief: as §1
# [23] = biological target: Gal(b1-3)GalNAc(b1-4)[Neu5Ac(a2-3)]Gal(b1-4)Glc
# Method in brief: as §1
# Gal(b1-3)GlcNAc = biological target: Gal(b1-3)GlcNAc
# Method in brief: as §1
# [24] = biological target: Gal(b1-3)GlcNAc(a1-3)Gal(b1-4)GlcNAc
# Method in brief: as §1
# [25] = biological target: Gal(b1-3)GlcNAc(a1-6)Gal(b1-4)GlcNAc
# Method in brief: as §1
# Gal(b1-3)GlcNAc(b1-2)Man = biological target: Gal(b1-3)GlcNAc(b1-2)Man
# Method in brief: as §1
# [26] = biological target: Gal(b1-3)GlcNAc(b1-2)Man(a1-3)[Gal(b1-3)GlcNAc(b1-2)Man(a1-6)]Man(b1-4)GlcNAc(b1-4)GlcNAc
# Method in brief: as §1
binder,measurement,setting,value
B1,glycan array binding signal (z-score),[1],-0.93
same,glycan array binding signal (z-score),[2],0.432
same,glycan array binding signal (z-score),[3],0.125
same,glycan array binding signal (z-score),Fuc(a1-4)GlcNAc,0.482
same,glycan array binding signal (z-score),Fuc(b1-3)GlcNAc,-0.431
same,glycan array binding signal (z-score),Gal(a1-2)Gal,-0.174
same,glycan array binding signal (z-score),Gal(a1-3)Gal,-0.589
same,glycan array binding signal (z-score),Gal(a1-3)Gal(b1-3)GlcNAc,-0.117
same,glycan array binding signal (z-score),[4],0.037
same,glycan array binding signal (z-score),[5],0.667
same,glycan array binding signal (z-score),[6],-0.852
same,glycan array binding signal (z-score),[7],-0.644
same,glycan array binding signal (z-score),[8],0.025
same,glycan array binding signal (z-score),Gal(a1-3)Gal(b1-4)Glc,0.42
same,glycan array binding signal (z-score),Gal(a1-3)Gal(b1-4)GlcNAc,-0.284
same,glycan array binding signal (z-score),[9],0.891
same,glycan array binding signal (z-score),[10],-0.182
same,glycan array binding signal (z-score),[11],-0.067
same,glycan array binding signal (z-score),[12],-0.353
same,glycan array binding signal (z-score),[13],0.171
same,glycan array binding signal (z-score),[14],0.299
same,glycan array binding signal (z-score),Gal(a1-3)GalNAc,0.207
same,glycan array binding signal (z-score),[15],0.735
same,glycan array binding signal (z-score),[16],-0.352
same,glycan array binding signal (z-score),Gal(a1-4)Gal(b1-4)Glc,0.07
same,glycan array binding signal (z-score),Gal(a1-4)Gal(b1-4)GlcNAc,1.13
same,glycan array binding signal (z-score),[17],0.935
same,glycan array binding signal (z-score),[18],1.22
same,glycan array binding signal (z-score),Gal(a1-4)GlcNAc,-0.495
same,glycan array binding signal (z-score),Gal(a1-6)Glc,0.483
same,glycan array binding signal (z-score),Gal(b1-2)Gal,-0.28
same,glycan array binding signal (z-score),Gal(b1-3)Gal,0.077
same,glycan array binding signal (z-score),Gal(b1-3)Gal(b1-4)GlcNAc,0.677
same,glycan array binding signal (z-score),Gal(b1-3)GalNAc,-0.324
same,glycan array binding signal (z-score),[19],-0.503
same,glycan array binding signal (z-score),[20],0.227
same,glycan array binding signal (z-score),Gal(b1-3)GalNAc(b1-3)Gal,-1.46
same,glycan array binding signal (z-score),[21],-0.647
same,glycan array binding signal (z-score),[22],-0.201
same,glycan array binding signal (z-score),[23],-0.012
same,glycan array binding signal (z-score),Gal(b1-3)GlcNAc,-0.752
same,glycan array binding signal (z-score),[24],-0.23
same,glycan array binding signal (z-score),[25],0.644
same,glycan array binding signal (z-score),Gal(b1-3)GlcNAc(b1-2)Man,-0.597
same,glycan array binding signal (z-score),[26],-0.033

# Laid out differently: results already given.
binder | measurement | setting | value
B1 | glycan array binding signal (z-score) | [13] | 0.171
same | glycan array binding signal (z-score) | [14] | 0.299
same | glycan array binding signal (z-score) | Gal(a1-3)GalNAc | 0.207
